Laboratory results: PubChem BioAssay AID2685 (National Center for Advancing Translational Sciences (NCATS), 2010)
The list shows a part of the results. Shown are side measurements of this screen, not its main read-out; they come without a call. Most of these compounds were active or inconclusive in the main read-out, so they are no random draw. Words in brackets tell the shape of the fitted curve; partial curves, single points and poor fits give uncertain potencies.

Experiment: qHTS Assay for Lipid Storage Modulators in Drosophila S3 Cells;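 as to cell number change: cells counted by Cell Tracker Red CMTPX staining in the red channel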
Details: BODIPY lipid droplet fluorescence, 18-24 h; for cell number change: measured here: cell count max response, cells fed with added oleic acid
Summary of the method: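 Drosophila S3 cells got compounds at several concentrations plus oleic acid (400 uM solution). Laser-scanning cytometry with 488 nm excitation read lipid droplets at 500-530 nm and cells at 575-640 nm. Percent activity was relative to 20 uM Triacsin C.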

[1] = measured here: lipid fluorescence (Fed channel) AC50, cells fed with added oleic acid
[2] = measured here: cell number channel AC50, cells fed with added oleic acid

## CC1C(=O)N2CCCc3cc(S(=O)(=O)NCc4ccccc4Cl)cc1c32 (stereo unspecified)
  cell number change: -12.5%
[1]
  AC50: 29.1 µM [falling, single point]

## O=C(C1CCN(S(=O)(=O)c2ccccc2)CC1)N1CCCCCC1
  cell number change: -0.578%
[2]
  AC50: 0.116 µM [rising, full curve, poor fit]

## C#C[C@]1(O)CC[C@H]2[C@@H]3CCc4cc(O)ccc4[C@H]3CC[C@@]21C
  cell number change: 0.211%
[1]
  AC50: 5.8 µM [rising, partial curve]

## CCCCN(CCCC)CCC(O)c1cc2c(Cl)cc(Cl)cc2c2cc(C(F)(F)F)ccc12 (stereo unspecified)
  cell number change: -80.5%
[2]
  AC50: 29.1 µM [falling, single point]

## COc1ccc(OCc2nnc(SCC(=O)N3CCOCC3)o2)cc1
  cell number change: -44.6%
[2]
  AC50: 11.6 µM [falling, partial curve]
[1]
  AC50: 14.6 µM [falling, partial curve]

## COc1ccc(-c2cn3cccnc3n2)cc1NC(=O)c1ccc(Br)o1
  cell number change: 47.1%
[2]
  AC50: 0.00651 µM [rising, full curve, poor fit]
[1]
  AC50: 29.1 µM [rising, partial curve]

## CC(C)CN(C(=O)c1cccc(F)c1)c1c(N)n(CC(C)C)c(=O)[nH]c1=O
  cell number change: -5.04%
[1]
  AC50: 6.51 µM [rising, partial curve, poor fit]

## CC(C)CC(NC(=O)OC(C)(C)C)c1cn([C@@H](CCC(=O)OC(C)(C)C)C(=O)N2CCN(C(=O)OC(C)(C)C)CC2)nn1 (stereo partly specified)
  cell number change: -32.2%
[2]
  AC50: 0.411 µM [falling, full curve, poor fit]
[1]
  AC50: 1.16 µM [falling, full curve, poor fit]

## COc1ccccc1OCC(=O)Nc1c2c(nn1-c1ccc(F)cc1)CS(=O)(=O)C2
  cell number change: -19%
[1]
  AC50: 29.1 µM [falling, single point]

## COc1ccc(-n2cnc3cc(C(=O)NC4CCCC4)ccc32)cc1
  cell number change: -3.28%
[2]
  AC50: 6.51 µM [falling, single point]
[1]
  AC50: 0.82 µM [falling, full curve]

## Cc1ccc(-c2nnc(SCC(=O)N3CCOCC3)nc2-c2ccc(C)cc2)cc1
  cell number change: -17.5%
[1]
  AC50: 18.4 µM [falling, single point]

## Cc1nn(C)c(C)c1S(=O)(=O)N1CCc2ccccc21
  cell number change: 14.4%
[1]
  AC50: 16.4 µM [rising, partial curve, poor fit]

## O=C(CCC(=O)N1CCN(C(=O)c2ccco2)CC1)c1ccc(F)cc1
[2]
  AC50: 6.51 µM [rising, single point]
[1]
  AC50: 5.17 µM [rising, single point]

## Cc1ccc(F)cc1NC(=O)c1cccc2nccnc12
[2]
  AC50: 0.116 µM [rising, full curve]
[1]
  AC50: 0.92 µM [rising, partial curve]

## CCOCCCNC(=S)N1CCCN(c2nc3cc(C)c(C)cc3cc2C#N)CC1
  cell number change: -16.6%
[1]
  AC50: 29.1 µM [falling, single point]

## COc1ccc(Nc2nc(N)nc(SCc3nnc(C)s3)n2)cc1
  cell number change: 10.1%
[1]
  AC50: 4.61 µM [rising, partial curve]

## COc1cc(OC)c(OC)cc1CNC(=O)c1cc(=O)c2ccccc2o1
  cell number change: 8.47%

## O=C(/C=C/c1ccccc1)Nc1scc(-c2ccccc2)c1C(=O)O
  cell number change: 0.352%
[1]
  AC50: 0.164 µM [falling, single point]

## Cc1ccc(Cl)cc1N1CCN(C(=O)Cc2c(C(=O)O)[nH]c3ccccc23)CC1
  cell number change: -3.17%
[1]
  AC50: 0.092 µM [falling, full curve, poor fit]

## CCN(CC)C(=O)CC(c1ccc2c(c1)OCO2)c1c(O)cc(OC)cc1OC (stereo unspecified)
  cell number change: 14.6%
[1]
  AC50: 6.51 µM [rising, partial curve, poor fit]

## O=C(CCN1CCN(c2ccccc2)CC1)NNC(=O)Cc1ccc(Br)cc1
  cell number change: -30.9%
[2]
  AC50: 32.6 µM [falling, partial curve, poor fit]

## Cc1ccc(S(=O)(=O)Nc2nc3ccccc3s2)cc1[N+](=O)[O-]
  cell number change: 4.95%
[1]
  AC50: 0.164 µM [rising, full curve, poor fit]

## CCOC(=O)c1ccc(NC(=S)NN2CCOCC2)cc1
  cell number change: 8.48%

## Cc1nn(C)cc1/C=N\NC(=O)c1ccc2c(c1)c(C)c(C)n2Cc1ccccc1
  cell number change: 96.4%
[2]
  AC50: 0.326 µM [rising, full curve]
[1]
  AC50: 1.03 µM [rising, full curve]

## CCOc1ccc(CCNC(=O)C2(c3ccccc3)CC2)cc1OCC
  cell number change: 35.7%
[1]
  AC50: 29.1 µM [rising, single point]

## CCS(=O)(=O)c1ccc(C(=O)NC)c(Cl)c1Cl
  cell number change: -38.5%
[2]
  AC50: 7.31 µM [falling, single point]

## S=C1Nc2ccccc2Sc2ccc(Cl)cc21
[2]
  AC50: 3.66 µM [falling, partial curve, poor fit]

## O=C(Nc1cc(Cl)ccc1N1CCOCC1)c1cccnc1
  cell number change: -11.5%

## COC(=O)[C@H](C)NC(=O)Nc1cc(Cl)ccc1C
  cell number change: -6.43%
[1]
  AC50: 4.11 µM [rising, single point]

## COc1ccc(CNC(=O)CCn2c(=O)c3cccn3c3ccc(F)cc32)cc1
[1]
  AC50: 5.17 µM [falling, partial curve]

## Oc1cccc(/C=N/Nc2cccc3cccnc23)c1
  cell number change: -13.9%
[1]
  AC50: 0.731 µM [falling, full curve, poor fit]

## CCc1ccc(-c2nn(-c3ccccc3)cc2C2SCC(=O)N2Cc2ccco2)cc1 (stereo unspecified)
  cell number change: 2.43%
[1]
  AC50: 6.51 µM [falling, single point]

## Cc1c(CCO)c(=O)n(-c2ccccc2)n1S(=O)(=O)c1ccc([N+](=O)[O-])cc1
  cell number change: -2.62%
[2]
  AC50: 6.51 µM [rising, single point]
[1]
  AC50: 4.11 µM [rising, partial curve, poor fit]

## CCOCCCNCc1cccc(OCc2ccc(F)cc2)c1
  cell number change: 18.3%
[1]
  AC50: 16.4 µM [rising, partial curve]

## CCOC(=O)c1cc(-c2cccs2)nn1CCC#N
[1]
  AC50: 0.13 µM [falling, full curve, poor fit]

## O=C(c1cc(Cl)ccc1OCc1ccccc1)N1CCOCC1
  cell number change: -2.48%
[2]
  AC50: 6.51 µM [rising, single point]

## Cc1ccccc1NC(=O)COC(=O)C1CC2CCCC(C1)C2=O (stereo unspecified)
  cell number change: -2.92%
[1]
  AC50: 6.51 µM [falling, single point]

## O=C(NC1CC1)C1=C[C@@H](c2coc3ccccc3c2=O)C[C@@H](OCc2ccc(CO)cc2)O1
[1]
  AC50: 23.1 µM [rising, partial curve]

## COc1ccc(S(=O)(=O)Nc2cc3c4c(c2)CC(=O)N4CCC3)cc1
[2]
  AC50: 0.103 µM [rising, full curve, poor fit]

## NC(N)=N/N=C/c1ccc(OCc2ccccc2)c(OCc2ccccc2)c1
  cell number change: 12.8%
[1]
  AC50: 23.1 µM [falling, single point]

## CCc1ccc(-c2cc(C)no2)cc1S(=O)(=O)N1CCOc2ccc(C)cc21
  cell number change: -106%
[2]
  AC50: 16.4 µM [falling, partial curve]
[1]
  AC50: 2.31 µM [falling, full curve]

## Cc1cc(C)cc(N(CC(=O)NC2CC3CCC2C3)S(C)(=O)=O)c1 (stereo unspecified)
  cell number change: 5.34%
[2]
  AC50: 0.731 µM [falling, full curve, poor fit]
[1]
  AC50: 0.651 µM [falling, full curve]

## C=CCN1C(=O)c2ccc(C(=O)N(C)CC(=O)Nc3ccccc3Cl)cc2C1=O
[2]
  AC50: 0.517 µM [rising, full curve]

## O=C(c1ccccc1Cl)N1CCNCC1
  cell number change: -34.7%
[2]
  AC50: 4.61 µM [falling, partial curve]

## CCCCCN(C(=O)CSc1n[nH]c(-c2ccc(C)cc2)n1)c1c(N)n(CCCC)c(=O)[nH]c1=O
  cell number change: -9.78%
[1]
  AC50: 5.17 µM [falling, single point]

## CC1=Nn2c(nnc2-c2ccccn2)SC1
  cell number change: -11.4%
[2]
  AC50: 0.461 µM [falling, full curve]
[1]
  AC50: 6.51 µM [falling, partial curve, poor fit]

## Cc1ccc(C2CC2C(=O)NNC(=S)Nc2ccc(Cl)cc2)cc1 (stereo unspecified)
[2]
  AC50: 3.26 µM [falling, partial curve]
[1]
  AC50: 2.31 µM [falling, full curve]

## COc1cccc(CC(=O)Nc2cc(S(=O)(=O)N3CCOCC3)ccc2N2CCN(C)CC2)c1
  cell number change: 5.78%
[1]
  AC50: 0.231 µM [rising, full curve, poor fit]

## O=C(NCC(=O)N1CCN(C(=O)c2ccco2)CC1)c1ccc(Br)cc1
  cell number change: 1.39%
[1]
  AC50: 1.64 µM [rising, partial curve]

## Cc1ccc(C2(C)NC(=O)N(CC(=O)N3CCN(S(=O)(=O)c4ccc(Cl)s4)CC3)C2=O)cc1 (stereo unspecified)
  cell number change: -12.7%
[1]
  AC50: 18.4 µM [falling, single point]

## O=[N+]([O-])c1c(NCCCO)cc(SCc2ccco2)c2nonc12
  cell number change: -31.8%
[2]
  AC50: 32.6 µM [falling, single point]
[1]
  AC50: 0.103 µM [falling, full curve, poor fit]

## Cc1nn(CC(=O)NCCCN2CCC(N3CCCCC3)CC2)c(=O)c2cc(-c3ccccc3)nn12
  cell number change: 16.4%
[2]
  AC50: 0.461 µM [rising, full curve, poor fit]

## O=C(c1cc(-c2ccccn2)nc2ccc(Br)cc12)N1CCc2ccccc2C1
[2]
  AC50: 2.91 µM [rising, partial curve]

## CS(=O)(=O)c1ccccc1C(=O)Nc1cccc2ncccc12
  cell number change: -0.794%
[2]
  AC50: 0.082 µM [rising, full curve, poor fit]

## COc1ccccc1-c1ccc(SCc2cccc(C)c2)nn1
  cell number change: -69.1%
[2]
  AC50: 2.59 µM [falling, partial curve, poor fit]
[1]
  AC50: 1.64 µM [falling, full curve]
